# Values from PubChem BioAssay AID504784 (Drosophila RNAi Screening Center, 2011).
# Assay: 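Genome-wide knock-down for genes giving too much or too little stored lipid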 (primary screen)
# Cells: Drosophila Kc167 embryonic cells
# Reagents: long dsRNA against Drosophila genes, about 250 ng dsRNA per well
# Duration: 4 days
# Treatment: cells fed 400 µM oleic acid bound to BSA
# Measured: 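Cells imaged and segmented; ratio of lipid droplet area to nuclear area, log-transformed, then normalised as a B-score over the screen; higher means more stored lipid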
# Direction: droplet/nuclear area B-score: higher = more stored lipid (overstorage)
# In all, the deposit lists about 17,000 reagents; below is a random part of those with a known target gene and a result. 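Each column is one replicate's B-score; the combined score over replicates was not deposited, so single values may mislead.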 Reagents against one gene are numbered here. A plus sign joins genes that one reagent is predicted to hit. Not all columns of the deposit are shown.
gene,reagent no.,"droplet/nuclear area B-score, replicate 1"
CG9674,1,-0.142
CG9674,2,-1.21
Tsp26A (Tetraspanin 26A),1,-1.9
CG34460,1,-0.0184
CG15393 (retired record),1,-0.4
her (hermaphrodite),1,-0.811
CG13631,1,1.4
CG13631,2,-0.02
CG42337,1,-0.864
CG42337,2,-2.57
CG42337,3,2.15
Send2 (Spermathecal endopeptidase 2),1,0.0997
Sodh1 (Sorbitol dehydrogenase 1),1,-0.0413
spas (spastin),1,4.2
CG31036,1,0.222
CG31036,2,-1.52
mrn (marionette),1,-0.581
CG15345 (retired record),1,-0.463
CG15345 (retired record),2,0.135
ctp (cut up),1,2.2
Mal-A7 (Maltase A7),1,0.136
CG9664,1,0.941
CG31391,1,1.59
GstT3 (Glutathione S transferase T3),1,0.442
Peritrophin-15a,1,0.647
GstE1 (Glutathione S transferase E1),1,2.17
CG15247,1,0.406
Usp14 (Ubiquitin specific protease 14),1,0.0179
CG31524,1,-0.107
Alp1 (Alkaline phosphatase 1),1,-0.642
CG32024,1,0.00115
Wdr82 (WD repeat domain 82),1,0.817
Wdr82 (WD repeat domain 82),2,-0.948
sotv + CG10731,1,-0.0176
sotv + CG10731,2,0.031
hb (hunchback),1,1.95
CG9903,1,0.643
CG5674,1,3.51
CG5674,2,-1.75
geminin,1,3.95
CG17036,1,1.76
Tbcb (Tubulin-binding cofactor B),1,1.52
CycH (Cyclin H),1,-0.151
CycH (Cyclin H),2,-0.66
gammaTub23C (gamma-Tubulin at 23C),1,-0.628
CG7079,1,-0.0805
CG30281,1,0.658
RpL40 (Ribosomal protein L40),1,7.81
nSyb (neuronal Synaptobrevin),1,-0.1
Obp57c (Odorant-binding protein 57c),1,-1.5
CG10226,1,1.32
CG12253,1,-0.497
CG7675,1,-1.66
Tm2 (Tropomyosin 2),1,0.725
Ero1L (Endoplasmic reticulum oxidoreductin-1-like),1,-0.426
CG14840,1,-0.61
rdgB (retinal degeneration B),1,-0.419
Lcp2 (Larval cuticle protein 2),1,-0.515
CG43795,1,0.722
CG43795,2,-0.255
CG43795,3,0.514
CG43795,4,-2.71
CG43795,5,-0.884
CG43795,6,-0.784
Dhrs4 (Dehydrogenase/reductase 4),1,-0.179
CG34266,1,-0.153
Cpr97Ea (Cuticular protein 97Ea),1,-0.398
nbs,1,-0.052
CG15747,1,0.0254
CG5440,1,-0.06
trc (tricornered),1,0.105
thetaTry (thetaTrypsin),1,-0.0199
Blm + CG14721,1,2.62
CAH7 (Carbonic anhydrase 7),1,0.15
rost (rolling stone),1,1.77
CG31055,1,-0.715
Zpr1,1,-0.963
CG15635,1,0.439
CG15635,2,-2.26
CG31287,1,-0.903
pippin,1,1.04
CG32645,1,-0.735
CG32645,2,0.584
Amacr (Alpha-methylacyl-CoA racemase),1,-0.632
Cow,1,-3.09
Cow,2,0.57
CG32195,1,-1.09
CG31231,1,-0.209
lz (lozenge),1,0.189
lz (lozenge),2,0.552
Cpes (Ceramide phosphoethanolamine synthase),1,1.48
CG1307,1,0.213
CG9525,1,0.63
CG30349,1,0.065
CG30349,2,-0.0436
Cnb (Centrobin),1,-1.68
CG32440,1,-3.73
AttA (Attacin-A),1,-0.955
eco (Establishment of cohesion),1,0.738
CG12909,1,0.363
glu (gluon),1,0.4
CG31659,1,-0.128
CG1092,1,0.899
CG32652 (retired record),1,0.179
CG32652 (retired record),2,0.177

A run of entries taken from the entries so far, for reference:
gene,reagent no.,"droplet/nuclear area B-score, replicate 1"
lz (lozenge),1,0.189
lz (lozenge),2,0.552
Cpes (Ceramide phosphoethanolamine synthase),1,1.48
CG1307,1,0.213
CG9525,1,0.63
CG30349,1,0.065
CG30349,2,-0.0436
Cnb (Centrobin),1,-1.68
CG32440,1,-3.73
AttA (Attacin-A),1,-0.955
eco (Establishment of cohesion),1,0.738
CG12909,1,0.363
glu (gluon),1,0.4
CG31659,1,-0.128
CG1092,1,0.899
CG32652 (retired record),1,0.179
CG32652 (retired record),2,0.177
